Binding data for two substances are collected here from publication PMC5095040.

Chains of the proteins cited; added tags and fusions are not shown.
UniProt P35222: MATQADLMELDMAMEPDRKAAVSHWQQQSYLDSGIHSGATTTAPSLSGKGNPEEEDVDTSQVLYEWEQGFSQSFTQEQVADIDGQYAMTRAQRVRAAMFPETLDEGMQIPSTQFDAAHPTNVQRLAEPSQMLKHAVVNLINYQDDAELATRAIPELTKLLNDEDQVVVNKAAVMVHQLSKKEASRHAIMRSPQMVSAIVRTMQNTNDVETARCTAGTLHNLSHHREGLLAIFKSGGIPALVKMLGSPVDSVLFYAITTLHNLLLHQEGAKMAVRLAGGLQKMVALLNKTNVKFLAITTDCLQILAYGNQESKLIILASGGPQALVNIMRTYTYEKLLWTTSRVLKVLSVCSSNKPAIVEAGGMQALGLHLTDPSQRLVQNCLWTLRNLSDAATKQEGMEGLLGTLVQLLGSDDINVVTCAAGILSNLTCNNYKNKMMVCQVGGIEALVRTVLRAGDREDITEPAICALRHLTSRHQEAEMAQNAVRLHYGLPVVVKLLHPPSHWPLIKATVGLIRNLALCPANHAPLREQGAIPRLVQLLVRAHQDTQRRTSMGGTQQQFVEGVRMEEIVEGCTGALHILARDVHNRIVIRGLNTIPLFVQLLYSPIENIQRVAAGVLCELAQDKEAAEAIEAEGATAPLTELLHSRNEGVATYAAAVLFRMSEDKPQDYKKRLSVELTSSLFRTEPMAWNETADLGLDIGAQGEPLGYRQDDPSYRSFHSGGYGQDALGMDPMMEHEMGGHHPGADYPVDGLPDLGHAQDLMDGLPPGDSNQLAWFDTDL

In experiment [1] the target is endogenous β-catenin (human (endogenous in HeLa and SKBR-3)) (UniProt P35222). As to the kind of experiment: co-IP; lysates of SKBR-3 cells, endogenous proteins; immunoprecipitation with control IgG, rabbit anti-β-catenin or mouse anti-MUC16, reciprocal; lysis buffer 20 mM Tris-HCl pH 7.4, 150 mM NaCl, 1% Triton X-100; antibodies overnight at 4°C.
The target in experiment [2] is endogenous MUC16 (human (endogenous in SKBR-3)) (UniProt Q8WXI7). The experiment is described as above.

Results are given in words; binding and its absence hold for the method and conditions named. Binding seen in cells or lysates may run through a third protein. Some binding calls cover weakened binding; strength is not graded here.

Turning to “endogenous MUC16 (from UniProt Q8WXI7 1-14507)”, in experiment [1], the binding result is listed as “binds”.

On to “endogenous β-catenin (from UniProt P35222 1-781)”, for which the binding entry in experiment [2] is listed as “binds”.
